These are yes or no findings as the source states them, for the method shown. In cells and extracts the contact can be indirect. Some binding calls cover weakened binding; strength is not graded here.
Experiments:
[1] = target: Survivin (human (endogenous in CNE2)) (UniProt O15392); assay: co-IP; endogenous proteins; CNE2 shCtrl and shTRAF4 cells, IR (2 Gy) 24 h or not, then MG132 6 h; whole cell extract, IP with FBXL7 or survivin antibody, immunoblot
[2] = target: Flag-Survivin (T34D) (UniProt O15392); assay: co-IP; Flag-Survivin WT, T34D or T34A transfected into CNE2 cells 24 h, IR (2 Gy) 24 h, then MG132 6 h; whole cell extract, Co-IP and immunoblot; endogenous FBXL7
[3] = target: Flag-Survivin WT (UniProt O15392); assay: as above
[4] = target: Flag-Survivin (T34A) (UniProt O15392); assay: as above

Sequences of proteins named here, by UniProt entry; tags and fusion partners are left off. A change or cut given only in a name is not applied to a line headed by its entry.
UniProt O15392: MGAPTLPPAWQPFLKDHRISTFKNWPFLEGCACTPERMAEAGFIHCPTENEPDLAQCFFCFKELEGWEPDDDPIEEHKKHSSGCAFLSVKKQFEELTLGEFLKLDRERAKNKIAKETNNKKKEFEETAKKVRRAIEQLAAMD

Measured: binding

B1: FBXL7 (protein, UniProt Q9UJT9 1-491)
chain: MGANNGKQYGSEGKGSSSISSDVSSSTDHTPTKAQKNVATSEDSDLSMRTLSTPSPALICPPNLPGFQNGRGSSTSSSSITGETVAMVHSPPPTRLTHPLIRLASRPQKEQASIDRLPDHSMVQIFSFLPTNQLCRCARVCRRWYNLAWDPRLWRTIRLTGETINVDRALKVLTRRLCQDTPNVCLMLETVTVSGCRRLTDRGLYTIAQCCPELRRLEVSGCYNISNEAVFDVVSLCPNLEHLDVSGCSKVTCISLTREASIKLSPLHGKQISIRYLDMTDCFVLEDEGLHTIAAHCTQLTHLYLRRCVRLTDEGLRYLVIYCASIKELSVSDCRFVSDFGLREIAKLESRLRYLSIAHCGRVTDVGIRYVAKYCSKLRYLNARGCEGITDHGVEYLAKNCTKLKSLDIGKCPLVSDTGLECLALNCFNLKRLSLKSCESITGQGLQIVAANCFDLQTLNVQDCEVSVEALRFVKRHCKRCVIEHTNPAFF
binds: all assays above
